No constants are given. Whether binding was seen depends on the method and setting. In cells and extracts the contact can be indirect. Some binding calls cover weakened binding; strength is not graded here. Tags and fused reporters may be left off the sequences shown.

For the experiment, the target named is T1, exogenous VDAC2 in NPC cells (two differently tagged copies), P45880.
T1 chain: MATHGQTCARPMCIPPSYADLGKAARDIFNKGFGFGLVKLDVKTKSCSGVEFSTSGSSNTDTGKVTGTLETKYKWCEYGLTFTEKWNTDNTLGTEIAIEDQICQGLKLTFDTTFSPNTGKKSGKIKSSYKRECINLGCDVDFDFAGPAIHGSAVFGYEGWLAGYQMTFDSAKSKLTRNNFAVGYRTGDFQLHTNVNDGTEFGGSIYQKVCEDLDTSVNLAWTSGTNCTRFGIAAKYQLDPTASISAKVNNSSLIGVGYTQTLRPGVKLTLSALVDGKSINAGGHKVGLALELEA
The experiment in a line: co-IP; two exogenous VDAC2 copies in lysates of NPC cells, with or without IR; precipitated with anti-FLAG antibody. The settings on record: remark: other sources report otherwise.

B1: exogenous VDAC2 in NPC cells (two differently tagged copies), P45880 1-294 (protein)
chain: MATHGQTCARPMCIPPSYADLGKAARDIFNKGFGFGLVKLDVKTKSCSGVEFSTSGSSNTDTGKVTGTLETKYKWCEYGLTFTEKWNTDNTLGTEIAIEDQICQGLKLTFDTTFSPNTGKKSGKIKSSYKRECINLGCDVDFDFAGPAIHGSAVFGYEGWLAGYQMTFDSAKSKLTRNNFAVGYRTGDFQLHTNVNDGTEFGGSIYQKVCEDLDTSVNLAWTSGTNCTRFGIAAKYQLDPTASISAKVNNSSLIGVGYTQTLRPGVKLTLSALVDGKSINAGGHKVGLALELEA
As to B1, the binding entry is reported as “binds”.

(Values after PMC9935546.)
